Two molecules from PMC3997432, “A Truncated Form of Rod Photoreceptor PDE6 β-Subunit Causes Autosomal Dominant Congenital Stationary Night Blindness by Interfering with the Inhibitory Activity of the γ-Subunit” (PLoS ONE, 2014) can be followed below.

Sequences of proteins named here, by UniProt entry; tags and fusion partners are left off. A change or cut given only in a name is not applied to a line headed by its entry. Residues count along the entry.
UniProt P35913, residues 1-313: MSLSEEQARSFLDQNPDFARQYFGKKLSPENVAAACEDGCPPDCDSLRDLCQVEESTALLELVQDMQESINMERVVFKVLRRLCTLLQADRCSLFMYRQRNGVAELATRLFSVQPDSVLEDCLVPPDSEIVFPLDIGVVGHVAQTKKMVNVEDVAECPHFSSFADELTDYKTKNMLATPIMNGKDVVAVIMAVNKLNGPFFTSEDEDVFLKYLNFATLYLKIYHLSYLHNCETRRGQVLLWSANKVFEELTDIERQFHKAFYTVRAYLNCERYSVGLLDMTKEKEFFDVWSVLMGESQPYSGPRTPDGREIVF

Assay [1] has as its target T1, CysBC-Pγ24-45 (Cys-Pγ24-45 peptide labeled at the N-terminal Cys with 3-(bromoacetyl)-7-diethyl-aminocoumarin) (UniProt P04972).
T1 sequence (peptide, N-terminal Cys labeled with 3-(bromoacetyl)-7-diethyl-aminocoumarin (BC)): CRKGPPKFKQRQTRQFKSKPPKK
The assay can be described thus: other fluorescence titration; competition: excess of unlabeled CysPγ24-45 added to CysBC-Pγ24-45 and PDE6β1-313; data not shown; both purified.

Assay [2] addresses PDE6β1-313 (PDE6-specific N-terminal portion of the human rod cGMP phosphodiesterase type 6 β-subunit truncation mutant) (human) (UniProt P35913). Described as above.

Results are given in words; binding and its absence hold for the method and conditions named. Some entries that bind do so weakly or less than the wild type.

For “PDE6β1-313 (PDE6-specific N-terminal portion of the human rod cGMP phosphodiesterase type 6 β-subunit truncation mutant) (from UniProt P35913-1 1-313) (domain or fragment)”, the binding entry in assay [1] is reported as “binds”. Regarding CRKGPPKFKQRQTRQFKSKPPKK (peptide, UniProt P04972 24-45) [unlabeled CysPγ24-45], the binding entry in assay [2] was “binds”.
